Reference: the supplement of paper PMC6411743
± gives the standard deviation of the averaged measurements. The list shows a part of the results.

Chains of the proteins cited; added tags and fusions are not shown. Lines headed by an entry give the natural chain unless they say otherwise; changes in a name come on top.
UniProt Q8IWB1: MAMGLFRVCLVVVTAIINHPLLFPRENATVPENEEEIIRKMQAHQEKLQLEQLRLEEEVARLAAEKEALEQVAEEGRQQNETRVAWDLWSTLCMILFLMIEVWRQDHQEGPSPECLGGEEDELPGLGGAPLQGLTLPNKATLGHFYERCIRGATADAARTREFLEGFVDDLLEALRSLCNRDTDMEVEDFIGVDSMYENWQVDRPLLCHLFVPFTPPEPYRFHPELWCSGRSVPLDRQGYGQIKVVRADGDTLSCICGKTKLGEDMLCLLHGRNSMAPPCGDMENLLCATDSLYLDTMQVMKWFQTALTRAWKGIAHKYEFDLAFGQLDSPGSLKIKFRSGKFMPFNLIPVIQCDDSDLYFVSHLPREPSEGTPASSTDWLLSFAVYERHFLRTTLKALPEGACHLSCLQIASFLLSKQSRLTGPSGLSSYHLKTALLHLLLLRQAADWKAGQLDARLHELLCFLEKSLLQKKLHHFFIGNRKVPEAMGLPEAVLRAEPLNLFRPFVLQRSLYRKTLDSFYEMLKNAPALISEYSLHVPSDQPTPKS
UniProt Q8IYQ7: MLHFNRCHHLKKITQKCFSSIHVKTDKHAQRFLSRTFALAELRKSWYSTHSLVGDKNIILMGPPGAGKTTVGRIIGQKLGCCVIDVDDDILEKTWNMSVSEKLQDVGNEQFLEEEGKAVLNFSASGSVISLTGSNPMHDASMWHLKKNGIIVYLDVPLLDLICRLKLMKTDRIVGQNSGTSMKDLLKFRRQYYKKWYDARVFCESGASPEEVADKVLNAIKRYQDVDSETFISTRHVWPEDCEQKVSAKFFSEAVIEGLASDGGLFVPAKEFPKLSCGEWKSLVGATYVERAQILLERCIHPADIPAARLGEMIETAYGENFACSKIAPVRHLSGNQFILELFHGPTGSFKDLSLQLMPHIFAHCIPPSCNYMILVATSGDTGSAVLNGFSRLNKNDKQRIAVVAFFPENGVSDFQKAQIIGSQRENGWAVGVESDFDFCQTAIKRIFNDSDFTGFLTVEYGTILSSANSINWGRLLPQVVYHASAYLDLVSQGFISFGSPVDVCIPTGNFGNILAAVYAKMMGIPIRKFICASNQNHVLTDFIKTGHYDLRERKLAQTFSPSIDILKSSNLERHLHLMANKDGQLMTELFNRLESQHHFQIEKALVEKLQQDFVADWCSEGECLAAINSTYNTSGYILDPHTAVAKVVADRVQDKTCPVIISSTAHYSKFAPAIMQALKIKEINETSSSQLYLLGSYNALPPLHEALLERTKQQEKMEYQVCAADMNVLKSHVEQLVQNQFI
UniProt Q8N108: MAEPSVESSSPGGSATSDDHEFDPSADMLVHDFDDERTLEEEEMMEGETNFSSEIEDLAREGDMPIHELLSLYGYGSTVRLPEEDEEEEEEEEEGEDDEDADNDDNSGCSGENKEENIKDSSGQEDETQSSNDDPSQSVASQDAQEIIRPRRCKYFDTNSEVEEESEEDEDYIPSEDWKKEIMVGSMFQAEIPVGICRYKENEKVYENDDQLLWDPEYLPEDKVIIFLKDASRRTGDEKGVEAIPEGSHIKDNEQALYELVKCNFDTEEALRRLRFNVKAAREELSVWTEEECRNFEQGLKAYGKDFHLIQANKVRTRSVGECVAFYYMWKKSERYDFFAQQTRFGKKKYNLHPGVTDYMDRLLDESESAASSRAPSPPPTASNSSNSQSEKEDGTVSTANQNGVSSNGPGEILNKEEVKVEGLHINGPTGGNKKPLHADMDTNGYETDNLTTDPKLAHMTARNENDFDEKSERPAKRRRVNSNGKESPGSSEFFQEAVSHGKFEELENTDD
UniProt Q8IXW5, whole entry: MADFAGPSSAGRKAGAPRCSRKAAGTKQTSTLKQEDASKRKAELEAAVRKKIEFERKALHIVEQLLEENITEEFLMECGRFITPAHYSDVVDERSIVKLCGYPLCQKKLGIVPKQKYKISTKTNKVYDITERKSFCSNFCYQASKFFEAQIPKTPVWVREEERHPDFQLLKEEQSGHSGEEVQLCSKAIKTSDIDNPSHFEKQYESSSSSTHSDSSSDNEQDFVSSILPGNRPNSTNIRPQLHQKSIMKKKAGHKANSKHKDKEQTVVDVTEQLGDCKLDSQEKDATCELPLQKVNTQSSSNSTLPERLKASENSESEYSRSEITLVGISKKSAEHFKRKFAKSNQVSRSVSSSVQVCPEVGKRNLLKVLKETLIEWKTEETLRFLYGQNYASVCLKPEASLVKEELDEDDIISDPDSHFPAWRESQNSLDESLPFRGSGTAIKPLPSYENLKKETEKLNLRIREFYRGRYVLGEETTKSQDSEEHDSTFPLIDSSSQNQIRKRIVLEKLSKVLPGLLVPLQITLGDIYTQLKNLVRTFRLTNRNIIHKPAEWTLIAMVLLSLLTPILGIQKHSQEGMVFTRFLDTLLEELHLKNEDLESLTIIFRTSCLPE
UniProt Q8NBU5: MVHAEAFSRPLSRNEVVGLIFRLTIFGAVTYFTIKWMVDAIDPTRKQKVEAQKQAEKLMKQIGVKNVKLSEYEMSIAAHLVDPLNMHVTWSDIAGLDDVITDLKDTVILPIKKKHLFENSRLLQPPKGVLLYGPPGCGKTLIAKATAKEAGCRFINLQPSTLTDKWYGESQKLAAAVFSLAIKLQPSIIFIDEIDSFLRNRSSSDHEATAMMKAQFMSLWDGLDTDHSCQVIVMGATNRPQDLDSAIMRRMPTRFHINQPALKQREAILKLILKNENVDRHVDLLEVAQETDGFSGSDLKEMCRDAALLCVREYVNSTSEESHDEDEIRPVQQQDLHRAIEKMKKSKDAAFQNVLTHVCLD
UniProt Q8TEH3: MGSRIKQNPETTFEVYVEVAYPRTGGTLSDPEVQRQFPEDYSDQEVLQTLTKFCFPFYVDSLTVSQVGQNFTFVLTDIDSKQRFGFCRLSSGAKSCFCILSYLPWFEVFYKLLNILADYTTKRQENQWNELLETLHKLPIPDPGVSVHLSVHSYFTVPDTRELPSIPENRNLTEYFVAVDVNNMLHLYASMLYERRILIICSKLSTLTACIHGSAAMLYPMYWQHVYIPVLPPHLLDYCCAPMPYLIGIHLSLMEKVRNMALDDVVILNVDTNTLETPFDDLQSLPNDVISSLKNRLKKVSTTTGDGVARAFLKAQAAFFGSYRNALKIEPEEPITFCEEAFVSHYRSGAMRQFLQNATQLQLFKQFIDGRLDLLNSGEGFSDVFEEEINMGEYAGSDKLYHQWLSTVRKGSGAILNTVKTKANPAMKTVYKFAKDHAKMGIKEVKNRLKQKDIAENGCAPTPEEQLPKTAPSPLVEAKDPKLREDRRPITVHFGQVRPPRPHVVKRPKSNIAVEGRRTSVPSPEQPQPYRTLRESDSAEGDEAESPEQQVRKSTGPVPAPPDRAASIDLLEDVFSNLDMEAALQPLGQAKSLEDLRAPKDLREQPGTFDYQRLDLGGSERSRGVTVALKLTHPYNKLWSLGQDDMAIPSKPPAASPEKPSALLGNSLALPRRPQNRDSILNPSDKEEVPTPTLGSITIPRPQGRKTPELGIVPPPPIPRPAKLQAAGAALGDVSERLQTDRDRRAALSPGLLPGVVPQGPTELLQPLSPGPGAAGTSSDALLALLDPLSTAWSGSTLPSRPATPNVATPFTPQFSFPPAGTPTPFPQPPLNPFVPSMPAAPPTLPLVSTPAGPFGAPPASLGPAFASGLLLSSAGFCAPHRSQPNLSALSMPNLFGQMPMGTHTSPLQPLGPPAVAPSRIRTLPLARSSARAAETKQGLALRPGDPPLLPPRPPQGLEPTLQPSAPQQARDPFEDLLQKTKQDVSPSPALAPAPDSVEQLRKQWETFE
UniProt Q8ND76: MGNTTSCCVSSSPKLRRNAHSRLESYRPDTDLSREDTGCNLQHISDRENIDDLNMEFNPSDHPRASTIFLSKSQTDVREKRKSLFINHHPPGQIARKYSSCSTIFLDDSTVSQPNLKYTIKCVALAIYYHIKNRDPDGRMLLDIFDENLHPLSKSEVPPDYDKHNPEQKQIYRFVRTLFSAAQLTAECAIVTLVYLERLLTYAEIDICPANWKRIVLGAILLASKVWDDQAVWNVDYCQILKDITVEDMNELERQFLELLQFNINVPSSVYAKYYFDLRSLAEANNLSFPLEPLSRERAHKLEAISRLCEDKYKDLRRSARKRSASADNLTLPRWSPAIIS
UniProt Q8NFV4: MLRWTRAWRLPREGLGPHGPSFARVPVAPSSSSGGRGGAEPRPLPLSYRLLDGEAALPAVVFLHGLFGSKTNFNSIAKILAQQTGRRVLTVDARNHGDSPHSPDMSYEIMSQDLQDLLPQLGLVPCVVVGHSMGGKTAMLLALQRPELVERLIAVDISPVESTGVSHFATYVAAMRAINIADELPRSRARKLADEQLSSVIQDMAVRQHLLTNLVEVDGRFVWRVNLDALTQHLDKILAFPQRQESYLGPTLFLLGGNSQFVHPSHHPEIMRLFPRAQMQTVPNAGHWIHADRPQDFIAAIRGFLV
UniProt Q8IVW6: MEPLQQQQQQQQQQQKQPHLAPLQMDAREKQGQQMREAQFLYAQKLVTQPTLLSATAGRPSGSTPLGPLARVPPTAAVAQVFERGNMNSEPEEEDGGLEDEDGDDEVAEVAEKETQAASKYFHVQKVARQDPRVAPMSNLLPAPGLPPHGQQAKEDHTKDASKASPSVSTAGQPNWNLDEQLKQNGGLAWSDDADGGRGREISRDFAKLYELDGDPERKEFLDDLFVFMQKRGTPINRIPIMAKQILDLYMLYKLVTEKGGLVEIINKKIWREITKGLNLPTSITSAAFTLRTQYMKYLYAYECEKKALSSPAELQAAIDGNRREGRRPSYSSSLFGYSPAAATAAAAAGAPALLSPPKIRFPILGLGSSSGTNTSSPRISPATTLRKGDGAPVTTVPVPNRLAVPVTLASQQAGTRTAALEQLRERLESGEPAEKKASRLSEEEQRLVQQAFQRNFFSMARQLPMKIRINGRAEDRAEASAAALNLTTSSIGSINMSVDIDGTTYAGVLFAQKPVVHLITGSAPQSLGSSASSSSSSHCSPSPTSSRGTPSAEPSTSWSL
UniProt Q8IYD1, whole entry: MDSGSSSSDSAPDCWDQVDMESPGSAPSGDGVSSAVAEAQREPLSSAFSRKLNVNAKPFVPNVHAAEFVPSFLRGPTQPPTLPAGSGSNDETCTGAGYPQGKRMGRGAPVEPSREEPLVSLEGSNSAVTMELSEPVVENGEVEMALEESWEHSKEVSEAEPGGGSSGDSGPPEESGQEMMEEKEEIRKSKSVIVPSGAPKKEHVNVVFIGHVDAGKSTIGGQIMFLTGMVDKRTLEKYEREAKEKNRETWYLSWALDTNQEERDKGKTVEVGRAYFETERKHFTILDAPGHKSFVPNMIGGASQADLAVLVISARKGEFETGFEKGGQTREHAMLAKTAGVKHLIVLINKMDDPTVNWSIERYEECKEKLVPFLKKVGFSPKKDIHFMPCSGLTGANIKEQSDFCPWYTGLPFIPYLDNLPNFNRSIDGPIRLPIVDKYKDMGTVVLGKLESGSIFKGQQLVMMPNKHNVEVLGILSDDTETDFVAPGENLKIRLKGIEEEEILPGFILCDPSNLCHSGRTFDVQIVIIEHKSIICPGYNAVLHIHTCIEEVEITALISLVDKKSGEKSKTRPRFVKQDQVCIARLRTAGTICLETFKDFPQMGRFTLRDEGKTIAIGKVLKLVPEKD
UniProt Q8N1G2: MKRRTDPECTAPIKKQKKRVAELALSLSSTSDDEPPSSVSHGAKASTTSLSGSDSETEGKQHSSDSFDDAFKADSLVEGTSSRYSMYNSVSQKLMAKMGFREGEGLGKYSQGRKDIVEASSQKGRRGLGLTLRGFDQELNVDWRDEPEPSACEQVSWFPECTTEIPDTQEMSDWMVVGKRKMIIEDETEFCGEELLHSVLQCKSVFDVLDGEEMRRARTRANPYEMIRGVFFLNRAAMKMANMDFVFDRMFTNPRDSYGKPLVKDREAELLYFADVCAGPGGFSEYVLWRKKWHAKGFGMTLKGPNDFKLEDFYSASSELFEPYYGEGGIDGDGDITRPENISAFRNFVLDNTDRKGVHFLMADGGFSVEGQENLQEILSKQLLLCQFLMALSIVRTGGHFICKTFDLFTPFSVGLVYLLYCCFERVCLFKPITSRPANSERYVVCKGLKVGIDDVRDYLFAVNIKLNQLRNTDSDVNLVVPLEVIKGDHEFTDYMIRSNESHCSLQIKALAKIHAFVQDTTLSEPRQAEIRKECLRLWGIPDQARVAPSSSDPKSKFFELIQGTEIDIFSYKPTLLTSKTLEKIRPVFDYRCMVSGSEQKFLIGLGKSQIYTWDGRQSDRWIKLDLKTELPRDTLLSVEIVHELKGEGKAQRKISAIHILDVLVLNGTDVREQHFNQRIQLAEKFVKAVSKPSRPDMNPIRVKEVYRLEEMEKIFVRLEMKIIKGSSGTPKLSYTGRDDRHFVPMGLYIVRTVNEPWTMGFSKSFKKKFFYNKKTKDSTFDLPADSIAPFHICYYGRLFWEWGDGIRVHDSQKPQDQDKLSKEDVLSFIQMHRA

Compound: Nc1nc2c(ncn2[C@@H]2O[C@H](COP(=O)(O)OP(=O)(O)OP(=O)(O)O)[C@@H](O)[C@H]2O)c(=O)[nH]1 [guanosine triphosphate]
Assay: NP40-soluble protein abundance relative to vehicle (solubility fold change) (ratio); higher = more soluble protein in presence of GTP
In short: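 Values are fold changes against the detergent-processed vehicle, based on vsn-normalised intensities. Jurkat crude lysate was treated at eight concentrations from 0.1 to 10 mM (10 min at room temperature, then 3 min at 37 °C), solubilised with 0.8% NP40 and benzonase, ultracentrifuged and analysed by TMT-labelled LC-MS/MS over three independent experiments.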

Target | NP40-soluble protein abundance (concentration: 0.1mM) | NP40-soluble protein abundance (concentration: 0.5mM) | NP40-soluble protein abundance (concentration: 1mM) | NP40-soluble protein abundance (concentration: 2mM) | NP40-soluble protein abundance (concentration: 4mM) | NP40-soluble protein abundance (concentration: 6mM) | NP40-soluble protein abundance (concentration: 8mM) | NP40-soluble protein abundance (concentration: 10mM)
CHD6 (UniProt Q8TD26) | 1.08 ± 0.043 | 1.07 ± 0.094 | 0.953 ± 0.03 | 1.03 ± 0.17 | 1.06 ± 0.15 | 0.981 ± 0.1 | 0.952 ± 0.024 | 0.94 ± 0.051
ITPRIP (UniProt Q8IWB1) | 1.06 ± 0.13 | 1.07 ± 0.15 | 0.992 ± 0.063 | 1.05 ± 0.17 | 0.991 ± 0.086 | 1.02 ± 0.14 | 0.958 ± 0.12 | 0.95 ± 0.1
NSUN6 (UniProt Q8TEA1) | 1 ± 0.039 | 1.01 ± 0.025 | 0.922 ± 0.03 | 0.931 ± 0.033 | 0.906 ± 0.052 | 0.911 ± 0.035 | 0.901 ± 0.069 | 0.893 ± 0.071
UniProt Q8TDY2 and related entries | 1 ± 0.033 | 1.01 ± 0.041 | 1 ± 0.011 | 1.03 ± 0.033 | 1.05 ± 0.021 | 1.05 ± 0.037 | 1.12 ± 0.085 | 1.07 ± 0.081
UniProt Q8IWY9 and related entries | 1.06 ± 0.047 | 0.993 ± 0.014 | 1.02 ± 0.011 | 1.02 ± 0.045 | 1.02 ± 0.026 | 0.993 ± 0.049 | 1 ± 0.018 | 0.986 ± 0.028
EHBP1L1 (UniProt Q8N3D4) | 1.08 ± 0.084 | 1.06 ± 0.061 | 1.13 ± 0.15 | 1.07 ± 0.087 | 1.02 ± 0.14 | 1.04 ± 0.15 | 1.09 ± 0.099 | 1.09 ± 0.13
THNSL1 (UniProt Q8IYQ7) | 1.05 ± 0.017 | 1.06 ± 0.053 | 0.965 ± 0.043 | 1 ± 0.039 | 0.946 ± 0.05 | 0.9486 ± 0.0082 | 0.925 ± 0.028 | 0.923 ± 0.084
UniProt Q8N108 and related entries | 0.97 ± 0.062 | 0.942 ± 0.044 | 0.986 ± 0.042 | 0.948 ± 0.068 | 0.989 ± 0.097 | 0.954 ± 0.071 | 1 ± 0.032 | 1 ± 0.046
UniProt Q8IXW5 and related entries | 1.04 ± 0.074 | 1.02 ± 0.033 | 1.07 ± 0.12 | 1.05 ± 0.053 | 1.02 ± 0.039 | 1.08 ± 0.089 | 1.11 ± 0.031 | 1.03 ± 0.026
UniProt Q8NBU5 | 0.983 ± 0.053 | 0.98 ± 0.023 | 0.924 ± 0.039 | 0.917 ± 0.07 | 0.858 ± 0.057 | 0.897 ± 0.027 | 0.894 ± 0.074 | 0.884 ± 0.073
UniProt Q8TEH3 and related entries | 1.12 ± 0.2 | 1.13 ± 0.22 | 0.998 ± 0.17 | 1.03 ± 0.23 | 0.963 ± 0.2 | 0.981 ± 0.17 | 0.914 ± 0.17 | 0.96 ± 0.2
UniProt Q8ND76 and related entries | 1.06 ± 0.14 | 1.108 ± 0.0068 | 1.14 ± 0.1 | 1.09 ± 0.034 | 1.05 ± 0.069 | 1.06 ± 0.014 | 1.07 ± 0.16 | 1.07 ± 0.24
PIAS4 (UniProt Q8N2W9) | 1 ± 0.031 | 1.02 ± 0.023 | 0.926 ± 0.066 | 0.953 ± 0.043 | 0.93 ± 0.038 | 0.914 ± 0.072 | 0.958 ± 0.072 | 0.92 ± 0.069
UniProt Q8NFV4 and related entries | 1.07 ± 0.092 | 0.929 ± 0.13 | 0.996 ± 0.063 | 1.02 ± 0.039 | 1.01 ± 0.027 | 0.965 ± 0.02 | 0.955 ± 0.021 | 0.961 ± 0.014
UniProt Q8IVW6 and related entries | 1.01 ± 0.058 | 1.06 ± 0.092 | 1.03 ± 0.11 | 1.07 ± 0.053 | 1.06 ± 0.05 | 0.965 ± 0.068 | 1.08 ± 0.049 | 0.9982 ± 0.0075
PLBD2 (UniProt Q8NHP8) | 0.962 ± 0.013 | 0.884 ± 0.043 | 0.973 ± 0.013 | 0.945 ± 0.032 | 0.954 ± 0.037 | 0.921 ± 0.026 | 0.933 ± 0.067 | 0.916 ± 0.016
GSPT2 (UniProt Q8IYD1) | 0.956 ± 0.071 | 0.978 ± 0.061 | 0.933 ± 0.07 | 0.925 ± 0.065 | 0.901 ± 0.086 | 0.907 ± 0.056 | 0.903 ± 0.06 | 0.899 ± 0.067
UniProt Q8N1G2 | 1.09 ± 0.11 | 1.05 ± 0.076 | 0.95 ± 0.048 | 0.994 ± 0.071 | 0.985 ± 0.064 | 0.952 ± 0.035 | 0.938 ± 0.06 | 0.938 ± 0.062
UniProt Q8NCE2 and related entries | 1.07 ± 0.086 | 1.06 ± 0.09 | 0.995 ± 0.1 | 1.07 ± 0.095 | 0.985 ± 0.077 | 0.936 ± 0.086 | 0.942 ± 0.036 | 0.915 ± 0.045
UniProt Q8IY17 and related entries | 1.0469 ± 0.00053 | 1.064 ± 0.0081 | 1.02 ± 0.15 | 1.04 ± 0.078 | 0.929 ± 0.19 | 1.0267 ± 0.00057 | 1 ± 0.013 | 1.031 ± 0.0086
CMAS (UniProt Q8NFW8) | 1.03 ± 0.029 | 1.05 ± 0.048 | 1.041 ± 0.01 | 1.1 ± 0.041 | 1.16 ± 0.052 | 1.18 ± 0.039 | 1.2 ± 0.038 | 1.21 ± 0.06
UniProt Q8TC07 and related entries | 1.06 ± 0.019 | 1.04 ± 0.05 | 0.995 ± 0.012 | 0.984 ± 0.046 | 0.994 ± 0.011 | 0.965 ± 0.014 | 0.961 ± 0.03 | 0.904 ± 0.037
UniProt Q8TCF1 and related entries | 1.05 ± 0.13 | 1.02 ± 0.088 | 0.992 ± 0.11 | 1.06 ± 0.15 | 0.943 ± 0.11 | 0.967 ± 0.08 | 0.921 ± 0.038 | 0.987 ± 0.17

Given in markdown: entries from further up.

| Target | NP40-soluble protein abundance (concentration: 0.1mM) | NP40-soluble protein abundance (concentration: 0.5mM) | NP40-soluble protein abundance (concentration: 1mM) | NP40-soluble protein abundance (concentration: 2mM) | NP40-soluble protein abundance (concentration: 4mM) | NP40-soluble protein abundance (concentration: 6mM) | NP40-soluble protein abundance (concentration: 8mM) | NP40-soluble protein abundance (concentration: 10mM) |
| --- | --- | --- | --- | --- | --- | --- | --- | --- |
| UniProt Q8TDY2 and related entries | 1 ± 0.033 | 1.01 ± 0.041 | 1 ± 0.011 | 1.03 ± 0.033 | 1.05 ± 0.021 | 1.05 ± 0.037 | 1.12 ± 0.085 | 1.07 ± 0.081 |
| THNSL1 (UniProt Q8IYQ7) | 1.05 ± 0.017 | 1.06 ± 0.053 | 0.965 ± 0.043 | 1 ± 0.039 | 0.946 ± 0.05 | 0.9486 ± 0.0082 | 0.925 ± 0.028 | 0.923 ± 0.084 |
| UniProt Q8IXW5 and related entries | 1.04 ± 0.074 | 1.02 ± 0.033 | 1.07 ± 0.12 | 1.05 ± 0.053 | 1.02 ± 0.039 | 1.08 ± 0.089 | 1.11 ± 0.031 | 1.03 ± 0.026 |
| UniProt Q8TEH3 and related entries | 1.12 ± 0.2 | 1.13 ± 0.22 | 0.998 ± 0.17 | 1.03 ± 0.23 | 0.963 ± 0.2 | 0.981 ± 0.17 | 0.914 ± 0.17 | 0.96 ± 0.2 |
| UniProt Q8ND76 and related entries | 1.06 ± 0.14 | 1.108 ± 0.0068 | 1.14 ± 0.1 | 1.09 ± 0.034 | 1.05 ± 0.069 | 1.06 ± 0.014 | 1.07 ± 0.16 | 1.07 ± 0.24 |
